Publication PMC6280245
No constants are given. Whether binding was seen depends on the method and setting. In cells and extracts the contact can be indirect. These calls come from enrichment with a bait or labelling near it, and not all partners need be listed.

Chains of the proteins cited; added tags and fusions are not shown.
UniProt P63101: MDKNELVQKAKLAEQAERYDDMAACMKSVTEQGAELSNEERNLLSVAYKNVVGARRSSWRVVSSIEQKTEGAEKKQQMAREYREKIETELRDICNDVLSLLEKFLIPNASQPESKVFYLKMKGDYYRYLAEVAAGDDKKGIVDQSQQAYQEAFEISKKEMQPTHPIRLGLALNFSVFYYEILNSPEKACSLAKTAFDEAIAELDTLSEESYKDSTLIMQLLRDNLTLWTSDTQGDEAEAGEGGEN
UniProt P50247: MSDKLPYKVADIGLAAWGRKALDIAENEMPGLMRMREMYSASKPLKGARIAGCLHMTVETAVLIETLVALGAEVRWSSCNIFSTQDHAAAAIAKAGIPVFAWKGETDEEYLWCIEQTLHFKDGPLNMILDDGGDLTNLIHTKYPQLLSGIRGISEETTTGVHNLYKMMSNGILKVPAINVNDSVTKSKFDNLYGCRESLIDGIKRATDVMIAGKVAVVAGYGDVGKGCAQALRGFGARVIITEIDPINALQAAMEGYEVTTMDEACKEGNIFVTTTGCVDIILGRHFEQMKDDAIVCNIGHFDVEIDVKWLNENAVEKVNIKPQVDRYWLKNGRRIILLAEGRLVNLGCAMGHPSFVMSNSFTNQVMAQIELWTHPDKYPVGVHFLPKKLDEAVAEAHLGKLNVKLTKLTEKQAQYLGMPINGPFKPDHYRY
UniProt Q8BGQ7: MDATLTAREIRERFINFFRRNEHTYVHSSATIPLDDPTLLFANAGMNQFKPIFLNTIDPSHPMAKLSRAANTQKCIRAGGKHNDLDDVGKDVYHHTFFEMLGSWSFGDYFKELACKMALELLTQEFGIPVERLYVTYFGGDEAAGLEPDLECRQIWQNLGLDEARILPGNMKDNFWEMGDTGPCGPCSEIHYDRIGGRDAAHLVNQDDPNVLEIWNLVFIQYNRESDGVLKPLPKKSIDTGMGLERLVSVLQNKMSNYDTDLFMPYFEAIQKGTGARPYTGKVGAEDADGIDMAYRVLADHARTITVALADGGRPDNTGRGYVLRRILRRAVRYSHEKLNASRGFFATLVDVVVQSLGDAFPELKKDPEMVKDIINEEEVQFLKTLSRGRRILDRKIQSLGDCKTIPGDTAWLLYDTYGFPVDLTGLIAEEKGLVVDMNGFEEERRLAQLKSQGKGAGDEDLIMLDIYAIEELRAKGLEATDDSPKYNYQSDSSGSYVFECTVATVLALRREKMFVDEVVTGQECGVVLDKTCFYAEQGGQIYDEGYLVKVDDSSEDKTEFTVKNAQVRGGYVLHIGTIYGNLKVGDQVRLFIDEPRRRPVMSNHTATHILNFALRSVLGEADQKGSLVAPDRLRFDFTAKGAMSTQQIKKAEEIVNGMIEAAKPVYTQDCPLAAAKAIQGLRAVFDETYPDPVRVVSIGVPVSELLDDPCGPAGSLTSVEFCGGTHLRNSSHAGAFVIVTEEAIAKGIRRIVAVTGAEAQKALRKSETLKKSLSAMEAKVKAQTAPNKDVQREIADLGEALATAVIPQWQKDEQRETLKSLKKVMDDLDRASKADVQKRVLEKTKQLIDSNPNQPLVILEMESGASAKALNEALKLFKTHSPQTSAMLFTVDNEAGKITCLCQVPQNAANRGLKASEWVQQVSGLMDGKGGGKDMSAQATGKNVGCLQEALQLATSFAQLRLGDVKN
UniProt P05201: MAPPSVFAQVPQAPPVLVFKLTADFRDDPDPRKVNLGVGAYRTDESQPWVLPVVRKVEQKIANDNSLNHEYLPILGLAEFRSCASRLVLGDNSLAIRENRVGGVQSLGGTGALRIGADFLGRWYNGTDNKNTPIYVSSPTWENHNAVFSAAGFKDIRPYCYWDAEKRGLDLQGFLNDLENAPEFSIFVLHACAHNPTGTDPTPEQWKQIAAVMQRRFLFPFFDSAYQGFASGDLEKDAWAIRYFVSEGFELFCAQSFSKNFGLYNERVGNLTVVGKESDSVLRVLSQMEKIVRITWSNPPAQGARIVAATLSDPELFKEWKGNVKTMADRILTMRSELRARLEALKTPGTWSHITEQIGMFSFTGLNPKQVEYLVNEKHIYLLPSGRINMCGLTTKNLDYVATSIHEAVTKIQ
UniProt P18760: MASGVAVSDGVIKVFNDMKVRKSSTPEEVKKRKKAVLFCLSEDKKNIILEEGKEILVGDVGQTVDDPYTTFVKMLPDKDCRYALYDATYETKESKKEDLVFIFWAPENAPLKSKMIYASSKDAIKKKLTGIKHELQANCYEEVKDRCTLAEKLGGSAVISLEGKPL
UniProt P17183: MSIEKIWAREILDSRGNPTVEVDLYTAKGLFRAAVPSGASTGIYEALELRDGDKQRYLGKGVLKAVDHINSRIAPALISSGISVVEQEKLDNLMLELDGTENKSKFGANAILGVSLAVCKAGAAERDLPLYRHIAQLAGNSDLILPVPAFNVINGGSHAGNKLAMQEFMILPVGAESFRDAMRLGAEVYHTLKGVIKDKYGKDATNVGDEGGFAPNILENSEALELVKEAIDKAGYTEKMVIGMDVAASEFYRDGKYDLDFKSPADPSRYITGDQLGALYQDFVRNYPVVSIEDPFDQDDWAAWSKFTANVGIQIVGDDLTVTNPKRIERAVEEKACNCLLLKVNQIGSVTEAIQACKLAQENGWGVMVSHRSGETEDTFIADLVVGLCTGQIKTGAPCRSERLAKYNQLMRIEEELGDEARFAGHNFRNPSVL
UniProt P62874: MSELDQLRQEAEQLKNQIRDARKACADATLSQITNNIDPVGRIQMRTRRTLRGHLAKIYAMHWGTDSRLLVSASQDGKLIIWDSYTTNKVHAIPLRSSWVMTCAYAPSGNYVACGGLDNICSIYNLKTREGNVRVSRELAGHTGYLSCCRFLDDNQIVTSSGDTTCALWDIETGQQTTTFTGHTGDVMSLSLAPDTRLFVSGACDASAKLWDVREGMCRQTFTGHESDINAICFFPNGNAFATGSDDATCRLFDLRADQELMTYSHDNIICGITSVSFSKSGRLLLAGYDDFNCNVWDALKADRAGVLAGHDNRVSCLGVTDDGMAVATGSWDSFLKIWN
UniProt P70288: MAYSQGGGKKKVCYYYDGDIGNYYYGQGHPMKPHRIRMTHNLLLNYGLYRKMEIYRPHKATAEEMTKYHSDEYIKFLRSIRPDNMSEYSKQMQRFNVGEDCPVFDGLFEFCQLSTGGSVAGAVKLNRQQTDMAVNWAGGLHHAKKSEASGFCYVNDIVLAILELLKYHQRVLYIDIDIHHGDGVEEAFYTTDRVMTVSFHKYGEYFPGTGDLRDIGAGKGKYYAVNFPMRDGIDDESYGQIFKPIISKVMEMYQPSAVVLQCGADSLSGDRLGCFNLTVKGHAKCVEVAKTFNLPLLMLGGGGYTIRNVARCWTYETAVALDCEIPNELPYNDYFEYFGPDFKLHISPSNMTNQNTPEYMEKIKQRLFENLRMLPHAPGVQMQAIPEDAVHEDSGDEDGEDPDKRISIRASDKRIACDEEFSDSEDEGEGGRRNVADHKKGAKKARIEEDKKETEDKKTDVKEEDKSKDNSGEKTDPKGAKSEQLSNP
UniProt O88447: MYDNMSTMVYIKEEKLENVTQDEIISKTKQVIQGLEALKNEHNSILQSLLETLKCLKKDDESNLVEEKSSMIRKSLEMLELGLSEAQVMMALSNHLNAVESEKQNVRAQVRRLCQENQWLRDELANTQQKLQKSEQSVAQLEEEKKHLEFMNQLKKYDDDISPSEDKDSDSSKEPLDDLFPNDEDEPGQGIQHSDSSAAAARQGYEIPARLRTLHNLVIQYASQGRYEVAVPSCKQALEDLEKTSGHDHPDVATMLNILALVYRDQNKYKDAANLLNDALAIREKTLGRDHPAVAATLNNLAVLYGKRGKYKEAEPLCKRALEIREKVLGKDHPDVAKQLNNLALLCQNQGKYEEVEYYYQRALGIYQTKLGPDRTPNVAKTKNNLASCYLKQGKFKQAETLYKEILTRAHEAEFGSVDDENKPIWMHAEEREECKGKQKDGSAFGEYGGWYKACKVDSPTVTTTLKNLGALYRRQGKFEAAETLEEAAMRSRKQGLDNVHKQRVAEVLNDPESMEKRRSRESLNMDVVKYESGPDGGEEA
UniProt Q9CWS0: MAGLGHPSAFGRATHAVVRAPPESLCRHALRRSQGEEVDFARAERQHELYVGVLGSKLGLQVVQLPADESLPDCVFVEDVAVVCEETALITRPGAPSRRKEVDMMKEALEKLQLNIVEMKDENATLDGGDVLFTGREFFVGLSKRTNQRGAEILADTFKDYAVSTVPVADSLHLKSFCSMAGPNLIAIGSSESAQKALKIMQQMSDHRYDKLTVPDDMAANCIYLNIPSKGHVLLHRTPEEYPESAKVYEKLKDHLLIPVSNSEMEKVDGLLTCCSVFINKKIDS
UniProt P52480: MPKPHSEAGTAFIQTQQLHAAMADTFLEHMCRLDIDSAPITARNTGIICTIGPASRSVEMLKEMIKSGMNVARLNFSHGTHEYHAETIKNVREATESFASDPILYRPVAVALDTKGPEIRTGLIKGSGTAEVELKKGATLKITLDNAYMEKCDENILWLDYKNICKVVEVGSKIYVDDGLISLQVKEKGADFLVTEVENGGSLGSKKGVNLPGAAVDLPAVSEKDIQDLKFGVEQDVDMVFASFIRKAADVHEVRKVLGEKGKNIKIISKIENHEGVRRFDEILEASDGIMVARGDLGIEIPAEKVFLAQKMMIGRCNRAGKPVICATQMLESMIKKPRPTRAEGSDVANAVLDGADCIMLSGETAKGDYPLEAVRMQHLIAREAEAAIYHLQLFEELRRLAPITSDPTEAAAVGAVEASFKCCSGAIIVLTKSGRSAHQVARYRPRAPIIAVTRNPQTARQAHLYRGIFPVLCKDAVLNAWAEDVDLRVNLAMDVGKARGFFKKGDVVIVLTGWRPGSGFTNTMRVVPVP

T1: mouse Nucleoredoxin Cys208Ser (mouse) (UniProt P97346)
T1 sequence: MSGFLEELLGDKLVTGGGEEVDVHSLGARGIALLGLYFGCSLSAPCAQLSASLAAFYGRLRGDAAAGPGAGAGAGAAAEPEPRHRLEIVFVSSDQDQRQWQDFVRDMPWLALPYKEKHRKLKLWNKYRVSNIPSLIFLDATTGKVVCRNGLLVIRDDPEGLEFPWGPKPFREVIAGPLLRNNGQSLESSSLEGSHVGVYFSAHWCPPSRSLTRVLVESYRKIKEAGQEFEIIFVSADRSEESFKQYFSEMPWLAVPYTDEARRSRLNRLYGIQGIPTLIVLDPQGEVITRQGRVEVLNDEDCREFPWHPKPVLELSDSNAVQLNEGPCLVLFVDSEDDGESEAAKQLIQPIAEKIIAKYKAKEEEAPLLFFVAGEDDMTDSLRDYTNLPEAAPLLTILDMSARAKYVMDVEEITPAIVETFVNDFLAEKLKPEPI

B1: Arginine-tRNA ligase, cytoplasmic (protein, UniProt P54136 1-660)
chain: MDVLVSECSARLLQQEEEIKSLTAEIDRLKNCGCLGASPNLEQLQEENLKLKYRLNILRKSLQAERNKPTKNMINIISRLQEVFGHAIKAAYPDLENPPLLVTPSQQAKFGDYQCNSAMGISQMLKTKEQKVNPREIAENITKHLPDNECIEKVEIAGPGFINVHLRKDFVSEQLTSLLVNGVQLPALGENKKVIVDFSSPNIAKEMHVGHLRSTIIGESISRLFEFAGYDVLRLNHVGDWGTQFGMLIAHLQDKFPDYLTVSPPIGDLQVFYKESKKRFDTEEEFKKRAYQCVVLLQGKNPDITKAWKLICDVSRQELNKIYDALDVSLIERGESFYQDRMNDIVKEFEDRGFVQVDDGRKIVFVPGCSIPLTIVKSDGGYTYDTSDLAAIKQRLFEEKADMIIYVVDNGQSVHFQTIFAAAQMIGWYDPKVTRVFHAGFGVVLGEDKKKFKTRSGETVRLMDLLGEGLKRSMDKLKEKERDKVLTAEELNAAQTSVAYGCIKYADLSHNRLNDYIFSFDKMLDDRGNTAAYLLYAFTRIRSIARLANIDEEMLQKAARETKILLDHEKEWKLGRCILRFPEILQKILDDLFLHTLCDYIYELATAFTEFYDSCYCVEKDRQTGKILKVNMWRMLLCEAVAAVMAKGFDILGIKPVQRM
B2: Septin-7 (protein, UniProt Q16181 1-437)
chain: MSVSARSAAAEERSVNSSTMVAQQKNLEGYVGFANLPNQVYRKSVKRGFEFTLMVVGESGLGKSTLINSLFLTDLYSPEYPGPSHRIKKTVQVEQSKVLIKEGGVQLLLTIVDTPGFGDAVDNSNCWQPVIDYIDSKFEDYLNAESRVNRRQMPDNRVQCCLYFIAPSGHGLKPLDIEFMKRLHEKVNIIPLIAKADTLTPEECQQFKKQIMKEIQEHKIKIYEFPETDDEEENKLVKKIKDRLPLAVVGSNTIIEVNGKRVRGRQYPWGVAEVENGEHCDFTILRNMLIRTHMQDLKDVTNNVHYENYRSRKLAAVTYNGVDNNKNKGQLTKSPLAQMEEERREHVAKMKKMEMEMEQVFEMKVKEKVQKLKDSEAELQRRHEQMKKNLEAQHKELEEKRRQFEDEKANWEAQQRILEQQNSSRTLEKNKKKGKIF
B3: Fructose-bisphosphate aldolase A (protein, UniProt P04075 1-364)
chain: MPYQYPALTPEQKKELSDIAHRIVAPGKGILAADESTGSIAKRLQSIGTENTEENRRFYRQLLLTADDRVNPCIGGVILFHETLYQKADDGRPFPQVIKSKGGVVGIKVDKGVVPLAGTNGETTTQGLDGLSERCAQYKKDGADFAKWRCVLKIGEHTPSALAIMENANVLARYASICQQNGIVPIVEPEILPDGDHDLKRCQYVTEKVLAAVYKALSDHHIYLEGTLLKPNMVTPGHACTQKFSHEEIAMATVTALRRTVPPAVTGITFLSGGQSEEEASINLNAINKCPLLKPWALTFSYGRALQASALKAWGGKKENLKAAQEEYVKRALANSLACQGKYTPSGQAGAAASESLFVSNHAY
B4: Transaldolase (protein, UniProt P37837 1-337)
chain: MSSSPVKRQRMESALDQLKQFTTVVADTGDFHAIDEYKPQDATTNPSLILAAAQMPAYQELVEEAIAYGRKLGGSQEDQIKNAIDKLFVLFGAEILKKIPGRVSTEVDARLSFDKDAMVARARRLIELYKEAGISKDRILIKLSSTWEGIQAGKELEEQHGIHCNMTLLFSFAQAVACAEAGVTLISPFVGRILDWHVANTDKKSYEPLEDPGVKSVTKIYNYYKKFSYKTIVMGASFRNTGEIKALAGCDFLTISPKLLGELLQDNAKLVPVLSAKAAQASDLEKIHLDEKSFRWLHNEDQMAVEKLSDGIRKFAADAVKLERMLTERMFNAENGK
B5: Thioredoxin reductase 1, cytoplasmic (protein, UniProt Q16881 1-649)
chain: MGCAEGKAVAAAAPTELQTKGKNGDGRRRSAKDHHPGKTLPENPAGFTSTATADSRALLQAYIDGHSVVIFSRSTCTRCTEVKKLFKSLCVPYFVLELDQTEDGRALEGTLSELAAETDLPVVFVKQRKIGGHGPTLKAYQEGRLQKLLKMNGPEDLPKSYDYDLIIIGGGSGGLAAAKEAAQYGKKVMVLDFVTPTPLGTRWGLGGTCVNVGCIPKKLMHQAALLGQALQDSRNYGWKVEETVKHDWDRMIEAVQNHIGSLNWGYRVALREKKVVYENAYGQFIGPHRIKATNNKGKEKIYSAERFLIATGERPRYLGIPGDKEYCISSDDLFSLPYCPGKTLVVGASYVALECAGFLAGIGLDVTVMVRSILLRGFDQDMANKIGEHMEEHGIKFIRQFVPIKVEQIEAGTPGRLRVVAQSTNSEEIIEGEYNTVMLAIGRDACTRKIGLETVGVKINEKTGKIPVTDEEQTNVPYIYAIGDILEDKVELTPVAIQAGRLLAQRLYAGSTVKCDYENVPTTVFTPLEYGACGLSEEKAVEKFGEENIEVYHSYFWPLEWTIPSRDNNKCYAKIICNTKDNERVVGFHVLGPNAGEVTQGFAAALKCGLTKKQLDSTIGIHPVCAEVFTTLSVTKRSGASILQAGCUG
B6: Synaptic vesicle membrane protein VAT-1 homolog (protein, UniProt Q99536 1-393)
chain: MSDEREVAEAATGEDASSPPPKTEAASDPQHPAASEGAAAAAASPPLLRCLVLTGFGGYDKVKLQSRPAAPPAPGPGQLTLRLRACGLNFADLMARQGLYDRLPPLPVTPGMEGAGVVIAVGEGVSDRKAGDRVMVLNRSGMWQEEVTVPSVQTFLIPEAMTFEEAAALLVNYITAYMVLFDFGNLQPGHSVLVHMAAGGVGMAAVQLCRTVENVTVFGTASASKHEALKENGVTHPIDYHTTDYVDEIKKISPKGVDIVMDPLGGSDTAKGYNLLKPMGKVVTYGMANLLTGPKRNLMALARTWWNQFSVTALQLLQANRAVCGFHLGYLDGEVELVSGVVARLLALYNQGHIKPHIDSVWPFEKVADAMKQMQEKKNVGKVLLVPGPEKEN
B7: Coatomer subunit delta (protein, UniProt P48444 1-511)
chain: MVLLAAAVCTKAGKAIVSRQFVEMTRTRIEGLLAAFPKLMNTGKQHTFVETESVRYVYQPMEKLYMVLITTKNSNILEDLETLRLFSRVIPEYCRALEENEISEHCFDLIFAFDEIVALGYRENVNLAQIRTFTEMDSHEEKVFRAVRETQEREAKAEMRRKAKELQQARRDAERQGKKAPGFGGFGSSAVSGGSTAAMITETIIETDKPKVAPAPARPSGPSKALKLGAKGKEVDNFVDKLKSEGETIMSSSMGKRTSEATKMHAPPINMESVHMKIEEKITLTCGRDGGLQNMELHGMIMLRISDDKYGRIRLHVENEDKKGVQLQTHPNVDKKLFTAESLIGLKNPEKSFPVNSDVGVLKWRLQTTEESFIPLTINCWPSESGNGCDVNIEYELQEDNLELNDVVITIPLPSGVGAPVIGEIDGEYRHDSRRNTLEWCLPVIDAKNKSGSLEFSIAGQPNDFFPVQVSFVSKKNYCNIQVTKVTQVDGNSPVRFSTETTFLVDKYEIL
B8: Branched-chain amino acid aminotransferase, cytosolic (protein, UniProt P54687 1-386)
chain: MKDCSNGCSAECTGEGGSKEVVGTFKAKDLIVTPATILKEKPDPNNLVFGTVFTDHMLTVEWSSEFGWEKPHIKPLQNLSLHPGSSALHYAVELFEGLKAFRGVDNKIRLFQPNLNMDRMYRSAVRATLPVFDKEELLECIQQLVKLDQEWVPYSTSASLYIRPTFIGTEPSLGVKKPTKALLFVLLSPVGPYFSSGTFNPVSLWANPKYVRAWKGGTGDCKMGGNYGSSLFAQCEAVDNGCQQVLWLYGEDHQITEVGTMNLFLYWINEDGEEELATPPLDGIILPGVTRRCILDLAHQWGEFKVSERYLTMDDLTTALEGNRVREMFGSGTACVVCPVSDILYKGETIHIPTMENGPKLASRILSKLTDIQYGREESDWTIVLS
B9: T-Complex protein 1 subunit beta (protein, UniProt P78371 1-535)
chain: MASLSLAPVNIFKAGADEERAETARLTSFIGAIAIGDLVKSTLGPKGMDKILLSSGRDASLMVTNDGATILKNIGVDNPAAKVLVDMSRVQDDEVGDGTTSVTVLAAELLREAESLIAKKIHPQTIIAGWREATKAAREALLSSAVDHGSDEVKFRQDLMNIAGTTLSSKLLTHHKDHFTKLAVEAVLRLKGSGNLEAIHIIKKLGGSLADSYLDEGFLLDKKIGVNQPKRIENAKILIANTGMDTDKIKIFGSRVRVDSTAKVAEIEHAEKEKMKEKVERILKHGINCFINRQLIYNYPEQLFGAAGVMAIEHADFAGVERLALVTGGEIASTFDHPELVKLGSCKLIEEVMIGEDKLIHFSGVALGEACTIVLRGATQQILDEAERSLHDALCVLAQTVKDSRTVYGGGCSEMLMAHAVTQLANRTPGKEAVAMESYAKALRMLPTIIADNAGYDSADLVAQLRAAHSEGNTTAGLDMREGTIGDMAILGITESFQVKRQVLLSAAEAAEVILRVDNIIKAAPRKRVPDHHPC

biological target: T1, mouse Nucleoredoxin Cys208Ser (mouse); test: affinity purification with mass spectrometry; intermediate trapping: mNrx Cys208Ser coupled to CNBr-activated sepharose and reduced with 10 mM DTT; clarified SH-SY5Y lysate (NP40 lysis buffer) 2 h at 4°C; washed with 100 mM Tris, 300 mM NaCl, pH 8 and TE buffer; trapped proteins (mixed disulfide) eluted with 10 mM DTT and 10 mM TCEP; only the target purified

binding, binds:
B1
B2
B3
B4
B5
B6
B7
B8
B9

biological target: T1, mouse Nucleoredoxin Cys208Ser (mouse); test: affinity purification with mass spectrometry; intermediate trapping: mNrx Cys208Ser coupled to CNBr-activated sepharose and reduced with 10 mM DTT; mouse brain extract (Black 6 C57J mice, NP40 lysis buffer) 2 h at 4°C; washed with 100 mM Tris, 300 mM NaCl, pH 8 and TE buffer; trapped proteins (mixed disulfide) eluted with 10 mM DTT and 10 mM TCEP; only the target purified

binding, binds:
14-3-3 protein zeta/delta (protein kinase C inhibitor protein 1) (mouse) (from UniProt P63101 1-245)
Adenosylhomocysteinase (mouse) (from UniProt P50247 1-432)
Alanine-tRNA ligase, cytoplasmic (mouse) (from UniProt Q8BGQ7 1-968)
Aspartate aminotransferase, cytoplasmic (mouse) (from UniProt P05201 1-413)
Cofilin-1 (mouse) (from UniProt P18760 1-166)
Gamma-enolase (mouse) (from UniProt P17183 1-434)
Guanine nucleotide-binding protein (mouse) (from UniProt P62874 1-340)
Histone deacetylase 2 (mouse) (from UniProt P70288 1-488)
Inosine-5′-monophosphate dehydrogenase 2 (mouse) (from UniProt P24547 1-514)
Kinesin light chain 1 (mouse) (from UniProt O88447 1-541)
N(G),N(G)-Dimethylarginine dimethylaminohydrolase 1 (mouse) (from UniProt Q9CWS0 1-285)
Pyruvate kinase (mouse) (from UniProt P52480 1-531)
